Reference: PubChem BioAssay AID1259327 (Drosophila RNAi Screening Center, 2017)
This is one part, drawn at random, of about 3,100 deposited reagents. Over the whole deposit, 378 (12%) were called active. 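Hits include both directions; z-score sign shows ATP rise or fall; raw luminescence values are not plate-normalised.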 Reagent sequences are not shown. Not given: the amount of reagent.

Aim: 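Baseline ATP after transmembrane-protein gene knock-down with water vehicle only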
Cell system: Drosophila S2R+ cells
Reagents: long dsRNA against Drosophila genes
Time to read-out: 5 days (water added on day 4, read one day later)
Treatment: water added as vehicle, no metal, one day before read-out
Measured: 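Luciferase ATP signal per well, normalised to plate mean, duplicate average converted to z-score across plates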
Reading the numbers: ATP z-score: higher = more total ATP than typical wells; ATP luminescence: higher = more total ATP
Rule for the call: 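a hit is any knock-down whose absolute ATP z-score is greater than 1.5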
Meaning of the calls: active = hit: ATP up or down; inactive = no clear ATP change

What did the screen give for wfs1 [DRSC15676]?
ATP z-score, duplicate mean: 1.92; ATP luminescence, replicate 1 (RLU): 4.42e5; ATP luminescence, replicate 2 (RLU): 8.24e5; call: active

For CG1909 [DRSC17150], how do the results read?
ATP z-score, duplicate mean: -0.284; ATP luminescence, replicate 1 (RLU): 7.10e5; ATP luminescence, replicate 2 (RLU): 6.44e5; call: inactive

How did the screen score CG1909 [DRSC39638]?
ATP z-score, duplicate mean: -2.01; ATP luminescence, replicate 1 (RLU): 3.50e5; ATP luminescence, replicate 2 (RLU): 3.06e5; call: active

How did the screen score PGRP-LF [DRSC28930]?
ATP z-score, duplicate mean: -0.166; ATP luminescence, replicate 1 (RLU): 8.63e5; ATP luminescence, replicate 2 (RLU): 7.48e5; call: inactive

With Ir84a [DRSC12510], what was measured?
ATP z-score, duplicate mean: -0.383; ATP luminescence, replicate 1 (RLU): 8.67e5; ATP luminescence, replicate 2 (RLU): 8.25e5; call: inactive

For Ir84a [DRSC27487], what was measured?
ATP z-score, duplicate mean: 3.18; ATP luminescence, replicate 1 (RLU): 1.16e6; ATP luminescence, replicate 2 (RLU): 9.63e5; call: active

Records above called active, once more:
wfs1 [DRSC15676] — ATP z-score, duplicate mean: 1.92; ATP luminescence, replicate 1 (RLU): 4.42e5; ATP luminescence, replicate 2 (RLU): 8.24e5; call: active
CG1909 [DRSC39638] — ATP z-score, duplicate mean: -2.01; ATP luminescence, replicate 1 (RLU): 3.50e5; ATP luminescence, replicate 2 (RLU): 3.06e5; call: active
Ir84a [DRSC27487] — ATP z-score, duplicate mean: 3.18; ATP luminescence, replicate 1 (RLU): 1.16e6; ATP luminescence, replicate 2 (RLU): 9.63e5; call: active

The list goes on:
How did the screen score ATPsynbetaL [DRSC10503]?
ATP z-score, duplicate mean: 0.67; ATP luminescence, replicate 1 (RLU): 9.91e5; ATP luminescence, replicate 2 (RLU): 9.76e5; call: inactive

What did the screen give for ATPsynbetaL [DRSC24354]?
ATP z-score, duplicate mean: -0.0589; ATP luminescence, replicate 1 (RLU): 8.99e5; ATP luminescence, replicate 2 (RLU): 7.86e5; call: inactive

With AkhR [DRSC03329], how do the results read?
ATP z-score, duplicate mean: 0.0443; ATP luminescence, replicate 1 (RLU): 4.48e5; ATP luminescence, replicate 2 (RLU): 5.18e5; call: inactive

With AkhR [DRSC28694], how do the results read?
ATP z-score, duplicate mean: -0.365; ATP luminescence, replicate 1 (RLU): 9.47e5; ATP luminescence, replicate 2 (RLU): 6.26e5; call: inactive

For otk [DRSC07658], what does the deposit list?
ATP z-score, duplicate mean: -0.134; ATP luminescence, replicate 1 (RLU): 6.24e5; ATP luminescence, replicate 2 (RLU): 5.91e5; call: inactive

With otk [DRSC29192], what does the deposit list?
ATP z-score, duplicate mean: 0.552; ATP luminescence, replicate 1 (RLU): 8.35e5; ATP luminescence, replicate 2 (RLU): 9.38e5; call: inactive

What did the screen give for otk [DRSC36649]?
ATP z-score, duplicate mean: 0.642; ATP luminescence, replicate 1 (RLU): 6.41e5; ATP luminescence, replicate 2 (RLU): 6.26e5; call: inactive

How did the screen score otk [DRSC36650]?
ATP z-score, duplicate mean: -1.39; ATP luminescence, replicate 1 (RLU): 5.21e5; ATP luminescence, replicate 2 (RLU): 4.01e5; call: inactive

What did the screen give for fz4 [DRSC18780]?
ATP z-score, duplicate mean: -0.897; ATP luminescence, replicate 1 (RLU): 5.57e5; ATP luminescence, replicate 2 (RLU): 7.69e5; call: inactive

With hbs [DRSC07627], what was measured?
ATP z-score, duplicate mean: 0.569; ATP luminescence, replicate 1 (RLU): 5.68e5; ATP luminescence, replicate 2 (RLU): 7.75e5; call: inactive

With hbs [DRSC39446], how do the results read?
ATP z-score, duplicate mean: -0.785; ATP luminescence, replicate 1 (RLU): 4.12e5; ATP luminescence, replicate 2 (RLU): 3.91e5; call: inactive
